# PubChem BioAssay AID686943 | Drosophila RNAi Screening Center, 2013
# Aim: 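Knockdowns that increase or decrease active ERK after insulin receptor stimulation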 (primary screen)
# Cell system: Drosophila S2R+ haemocyte-like cells expressing YFP-tagged ERK (Rolled)
# Reagent: long dsRNA against Drosophila genes
# Challenge: insulin stimulation versus unstimulated cells; dose and duration not given
# Read-out: 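Antibody staining for doubly phosphorylated ERK divided by ERK-YFP signal, as plate z-scores, in insulin-treated and untreated cells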
# Scale: replicate 1, z-score of dpERK with insulin and replicate 2, z-score of dpERK with insulin: higher = more active ERK per ERK-YFP after insulin; replicate 1, z-score of dpERK under basal conditions: higher = more basal active ERK per ERK-YFP; replicate 1, z-score of ERK-YFP with insulin: higher = more YFP-tagged ERK signal
# The deposit covers about 23,000 reagents; shown is a random part of those that have a named target and a result. 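Extra replicates exist only for a retested subset of genes; insulin dose and duration not given; both raised and lowered dpERK matter.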 Names joined by + are all predicted targets of the reagent. No sequences are given here. Not stated in the record: the amount of reagent, the time to read-out.
target,DRSC id,"replicate 1, z-score of dpERK with insulin","replicate 2, z-score of dpERK with insulin","replicate 1, z-score of dpERK under basal conditions","replicate 1, z-score of ERK-YFP with insulin"
CG5172,DRSC19936,2.13,2.27,0.99,0.16
CG4362,DRSC15567,0.1,0.51,-1.14,0.57
CG13841,DRSC14691,-1.81,0,-1.58,-2.12
CG14440,DRSC17933,-2.85,-2.61,-1.06,2.44
CG4424,DRSC15576,2.2,0.17,-0.35,-0.1
neur + asRNA:CR31429,DRSC17013,0.08,0.42,-0.07,-0.03
sw + Sdic4 + Sdic3 + 2 more,DRSC20696,0.44,0.81,2.92,-0.38
CG33136,DRSC05744,0.37,0.3,1.16,-0.72
CG5096,DRSC02813,0.3,0.61,-0.11,-0.26
Rpn1,DRSC11274,-1.89,-4.22,-3.23,0.23
CG11666,DRSC22379,0.2,0.44,-0.55,-0.23
Drsl5,DRSC08159,0.15,-0.19,0.19,-0.16
dnd,DRSC16064,0.68,-0.59,0.96,0.46
CG15233,DRSC04967,-0.07,-0.04,-1.19,-0.41
Dnaaf3,DRSC06684,0,0.25,0.26,0.34
CG12493,DRSC08279,-0.05,-1.8,-0.55,1.48
CG9072,DRSC20147,0.28,0.19,0.24,-0.65
Dp,DRSC07402,-2.53,-3.3,-4.27,-5.38
RIOK2,DRSC14413,0.24,0.14,-0.08,-0.34
Mlc2,DRSC16741,0.2,-0.72,0.14,0.33

2 entries from above in another layout:
{"target": "CG14440", "DRSC id": "DRSC17933", "replicate 1, z-score of dpERK with insulin": -2.85, "replicate 2, z-score of dpERK with insulin": -2.61, "replicate 1, z-score of dpERK under basal conditions": -1.06, "replicate 1, z-score of ERK-YFP with insulin": 2.44}
{"target": "CG4424", "DRSC id": "DRSC15576", "replicate 1, z-score of dpERK with insulin": 2.2, "replicate 2, z-score of dpERK with insulin": 0.17, "replicate 1, z-score of dpERK under basal conditions": -0.35, "replicate 1, z-score of ERK-YFP with insulin": -0.1}

Continued.
target,DRSC id,"replicate 1, z-score of dpERK with insulin","replicate 2, z-score of dpERK with insulin","replicate 1, z-score of dpERK under basal conditions","replicate 1, z-score of ERK-YFP with insulin"
CG10863,DRSC08145,0.6,-1.07,-1.65,0.76
CG10734,DRSC05998,-0.83,-0.3,-0.55,0.48
Galphaf,DRSC11171,-0.07,-0.9,0.04,-0.84
CG18128,DRSC04304,-0.16,-0.59,0.12,-0.28
Mhcl,DRSC13130,-0.8,0.35,0.36,0.94
Mhcl,DRSC14216,-0.01,0.36,0.12,0.2
Mhcl,DRSC16753,-0.51,0.48,0.3,0.69
Bbd,DRSC06709,0.2,0.07,1.5,0.12
CG34269,DRSC07884,0.14,-0.49,-0.05,0.01
Mis12,DRSC10299,-0.99,-0.32,0.09,0.44
CG14374,DRSC14834,-0.1,0.23,0.87,-0.26
CG10214,DRSC14213,-0.57,0.38,-0.18,-0.18
pzg,DRSC11848,-1.97,-2.08,-1.29,1.02
Sodh2,DRSC16865,-0.02,0.03,-0.62,0.09
CG4887,DRSC00670,1.23,1.01,-0.36,-0.2
CG4887,DRSC21563,1.01,0.11,0.26,0.14
dac,DRSC03518,0.97,0.07,-0.01,-1.79
Gr36c,DRSC02437,0.34,-0.11,1.35,-0.73
CG14190,DRSC19545,0.31,-0.18,0.08,0.51
